Reference: patent US20020160932A1, “Uncompetitive inhibitors of helicase-primase” (priority 2000, published 2002)
For at least one compound, name, drawing or mass did not settle the structure.

Tested on: Wild-type HSV-1 (F)
Test: in vitro viral replication assay, wild-type HSV-1 (F)
Assay type: cell-based, herpes simplex virus 1

Question: Which “IC50 Wild-type HSV-1 (F)” value does the source give for `Cc1nc(N(C)C(=O)Cc2ccc(-c3ccccc3)cc2)sc1S(N)(=O)=O` [Example 5] here?
Answer: Its value is 3,E−08 μM.
